Measurements reported in PubChem BioAssay AID602196 (INSERM, 2012)
This is one part, drawn at random, of about 23,000 reagents tested. 455 of all reagents (2%) count as active. 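Active includes both protection and sensitisation; some change values fall well beyond the stated -50 to +50 range.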 A number with no mark means an inactive call. Not all columns of the deposit are shown. Reagent sequences are not shown. The record does not give: the amount of reagent.

Screen: 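Genes whose knock-down alters cisplatin killing of lung cancer cells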
System: human A549 lung cancer cells
Reagents: siRNA pair against human genes
Timing: 48 h transfection before cisplatin; time from cisplatin to read-out not stated
Challenge: cisplatin at a dose killing half of control-siRNA cells; exact dose and duration not given
Measurement: 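Shift in cisplatin death relative to control siRNA, from -50 (all cells die) to +50 (no cells die); siRNAs harmful on their own scored 0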
Scale: two-siRNA summed score (-2 to +2): higher = both siRNAs protect from cisplatin killing; -2 means both sensitise
Call rule: 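Each siRNA scores 0 if harmful alone by LDH or WST-1, otherwise +1 if it reduces and -1 if it increases cisplatin killing; a gene is active when both siRNAs agree (sum +2 or -2)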
Calls: active = both siRNAs shift cisplatin killing the same way; inactive = no consistent shift, or siRNA harmful alone

{"Target gene": "TAS2R13", "two-siRNA summed score (-2 to +2)": 0}
{"Target gene": "PDIA2", "two-siRNA summed score (-2 to +2)": 0}
{"Target gene": "CHMP4C", "two-siRNA summed score (-2 to +2)": 0}
{"Target gene": "LOC441133", "two-siRNA summed score (-2 to +2)": 0}
{"Target gene": "PHB1", "two-siRNA summed score (-2 to +2)": -1}
{"Target gene": "TDRP", "two-siRNA summed score (-2 to +2)": 0}
{"Target gene": "FAM50B", "two-siRNA summed score (-2 to +2)": 0}
{"Target gene": "FAM240C", "two-siRNA summed score (-2 to +2)": 1}
{"Target gene": "LOC387880", "two-siRNA summed score (-2 to +2)": "2 (active)"}
{"Target gene": "TNS1", "two-siRNA summed score (-2 to +2)": 0}
{"Target gene": "MYL2", "two-siRNA summed score (-2 to +2)": "2 (active)"}
{"Target gene": "CCDC134", "two-siRNA summed score (-2 to +2)": 0}
{"Target gene": "MFSD6L", "two-siRNA summed score (-2 to +2)": 0}
{"Target gene": "LGMN", "two-siRNA summed score (-2 to +2)": 0}
{"Target gene": "GGT7", "two-siRNA summed score (-2 to +2)": "2 (active)"}
{"Target gene": "DBNDD1", "two-siRNA summed score (-2 to +2)": 0}
{"Target gene": "KIRREL1", "two-siRNA summed score (-2 to +2)": 0}
{"Target gene": "CIROZ", "two-siRNA summed score (-2 to +2)": -1}
{"Target gene": "ATP11A", "two-siRNA summed score (-2 to +2)": 0}
{"Target gene": "CSRNP1", "two-siRNA summed score (-2 to +2)": 0}
{"Target gene": "HPR", "two-siRNA summed score (-2 to +2)": 1}
{"Target gene": "SFTA2", "two-siRNA summed score (-2 to +2)": 0}

Records listed so far called active, once more:
{"Target gene": "LOC387880", "two-siRNA summed score (-2 to +2)": "2 (active)"}
{"Target gene": "MYL2", "two-siRNA summed score (-2 to +2)": "2 (active)"}
{"Target gene": "GGT7", "two-siRNA summed score (-2 to +2)": "2 (active)"}

Continued:
{"Target gene": "CACYBP", "two-siRNA summed score (-2 to +2)": -1}
{"Target gene": "FGF16", "two-siRNA summed score (-2 to +2)": 0}
{"Target gene": "ANXA9", "two-siRNA summed score (-2 to +2)": 0}
{"Target gene": "IST1", "two-siRNA summed score (-2 to +2)": 1}
{"Target gene": "BDNF", "two-siRNA summed score (-2 to +2)": 0}
{"Target gene": "LOC390498", "two-siRNA summed score (-2 to +2)": 1}
{"Target gene": "LOC441952", "two-siRNA summed score (-2 to +2)": 1}
{"Target gene": "LOC144404", "two-siRNA summed score (-2 to +2)": 0}
{"Target gene": "UTP6", "two-siRNA summed score (-2 to +2)": -1}
{"Target gene": "MTTP", "two-siRNA summed score (-2 to +2)": -1}
{"Target gene": "LOC389237", "two-siRNA summed score (-2 to +2)": 1}
{"Target gene": "LOC343301", "two-siRNA summed score (-2 to +2)": 0}
{"Target gene": "RFPL1", "two-siRNA summed score (-2 to +2)": 0}
{"Target gene": "LOC387746", "two-siRNA summed score (-2 to +2)": 0}
{"Target gene": "RPRD2", "two-siRNA summed score (-2 to +2)": 1}
{"Target gene": "DEFA5", "two-siRNA summed score (-2 to +2)": 0}
{"Target gene": "SGIP1", "two-siRNA summed score (-2 to +2)": 1}
{"Target gene": "LOC134541", "two-siRNA summed score (-2 to +2)": 0}
